From patent US8697633B2, “Dissolution of arterial plaque” (AtheraNova Operations, Inc., priority 2005, dated 2014)
For at least one compound, name, drawing or mass did not settle the structure.

Tested on: atherosclerotic plaque
Assay: ex vivo pig artery samples bathed in aqueous DCA solution, macroscopic plaque assessment
Details: 50 mg/mL DCA, after 36 hours of exposure

C[C@H](CCC(=O)O)[C@H]1CC[C@H]2[C@@H]3CC[C@@H]4C[C@H](O)CC[C@]4(C)[C@H]3C[C@H](O)[C@]12C [DCA, deoxycholic acid]
plaque remaining after exposure (macroscopic): All core material appeared to have been solubilized
